From article PMC4408008 come the findings set out here.

The chains behind the UniProt entries cited, without tags or fusion partners.
UniProt Q96EB6: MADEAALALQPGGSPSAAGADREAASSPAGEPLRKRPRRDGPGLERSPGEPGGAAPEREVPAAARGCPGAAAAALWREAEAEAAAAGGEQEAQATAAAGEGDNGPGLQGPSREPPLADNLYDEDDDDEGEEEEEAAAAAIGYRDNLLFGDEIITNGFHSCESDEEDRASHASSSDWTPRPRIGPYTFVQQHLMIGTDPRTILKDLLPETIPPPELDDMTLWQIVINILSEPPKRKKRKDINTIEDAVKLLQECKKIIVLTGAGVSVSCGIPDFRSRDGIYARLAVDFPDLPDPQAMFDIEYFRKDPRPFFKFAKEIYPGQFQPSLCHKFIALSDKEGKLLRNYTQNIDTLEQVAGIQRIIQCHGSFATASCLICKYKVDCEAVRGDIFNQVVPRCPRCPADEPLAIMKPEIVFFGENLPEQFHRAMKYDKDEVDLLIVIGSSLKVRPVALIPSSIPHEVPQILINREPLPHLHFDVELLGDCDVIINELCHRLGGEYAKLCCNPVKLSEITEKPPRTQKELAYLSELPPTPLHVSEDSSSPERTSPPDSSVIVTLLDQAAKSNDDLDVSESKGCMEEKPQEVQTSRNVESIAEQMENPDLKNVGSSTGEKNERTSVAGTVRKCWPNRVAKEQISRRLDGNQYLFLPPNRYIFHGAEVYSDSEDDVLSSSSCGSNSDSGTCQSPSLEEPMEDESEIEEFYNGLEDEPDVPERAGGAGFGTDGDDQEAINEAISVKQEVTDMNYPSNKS
UniProt Q13263: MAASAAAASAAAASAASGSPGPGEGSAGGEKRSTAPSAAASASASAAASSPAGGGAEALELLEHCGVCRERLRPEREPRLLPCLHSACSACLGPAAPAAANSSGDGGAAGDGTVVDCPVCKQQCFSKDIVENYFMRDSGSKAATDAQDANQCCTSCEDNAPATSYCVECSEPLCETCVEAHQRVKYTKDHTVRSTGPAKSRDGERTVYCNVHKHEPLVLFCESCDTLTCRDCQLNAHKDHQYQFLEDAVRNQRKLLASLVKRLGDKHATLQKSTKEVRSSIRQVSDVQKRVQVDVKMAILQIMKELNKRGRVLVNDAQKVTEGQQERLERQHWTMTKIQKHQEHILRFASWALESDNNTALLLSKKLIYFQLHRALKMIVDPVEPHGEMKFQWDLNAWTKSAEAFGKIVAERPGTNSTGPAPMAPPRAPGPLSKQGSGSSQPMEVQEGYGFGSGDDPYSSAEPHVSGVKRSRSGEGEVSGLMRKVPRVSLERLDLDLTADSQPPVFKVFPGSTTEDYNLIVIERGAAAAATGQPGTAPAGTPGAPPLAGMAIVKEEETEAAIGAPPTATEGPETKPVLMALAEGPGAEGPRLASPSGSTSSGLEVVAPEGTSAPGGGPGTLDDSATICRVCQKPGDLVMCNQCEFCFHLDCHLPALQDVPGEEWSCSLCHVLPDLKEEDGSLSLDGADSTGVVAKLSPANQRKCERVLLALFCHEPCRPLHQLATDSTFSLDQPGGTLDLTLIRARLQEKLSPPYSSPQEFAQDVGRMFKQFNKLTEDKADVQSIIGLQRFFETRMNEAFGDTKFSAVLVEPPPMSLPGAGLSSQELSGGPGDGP

For this test, the target named is FLAG-tagged full-length (FL) SIRT1 (UniProt Q96EB6). The experiment in a line: affinity purification with mass spectrometry; immunoprecipitation of FLAG-tagged SIRT1 from HEK293T cells followed by mass spectrometric analysis.

These are yes or no findings as the source states them, for the method shown. In cells and extracts the contact can be indirect. These calls come from enrichment with a bait or labelling near it, and not all partners need be listed.

As to “Krüppel associated box (KRAB)-associated protein 1 (KAP1), endogenous (from UniProt Q13263 1-835)”, the binding entry is on record as “binds”.
